PubChem BioAssay AID1259259 | Sanger Institute, 2017

Aim: 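Kinase silencing that lowers colorectal cancer cell viability alone or with drugs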 (primary screen)
Cell system: SW1463 human colorectal cancer cells
Reagent: siRNA pool against human genes
Conditions: DMSO vehicle, or one anchor drug: BYL719 at 1 µM, cetuximab at 5 µg/ml, or trametinib at 10 nM
Read-out: 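Viability relative to control pool 2 (non-targeting) averaged over replicates, robust z-score for knock-down with no drug, and for each anchor drug the mean synergy score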
Scale: robust z-score, knock-down alone: higher = more viable cells after knock-down; viability, knock-down alone: higher = more viable cells; synergy score with BYL719 and synergy score with cetuximab and synergy score with trametinib: higher = stronger synergy (synthetic lethal) with drug
Rule for the call: 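Knock-down called essential when its robust z-score without drug falls below -3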
Meaning of the calls: active = essential: viability loss from knock-down alone; inactive = no change from knock-down alone
The whole screen tested 794 reagents; this is a random part of them. 9 of them (1.1%) were called active. 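Calls rest on knock-down alone, not drug synergy; viability values seem capped at 1.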 Entries without a mark were called inactive. No sequences are given here. Not stated in the record: the amount of reagent, the time to read-out.

| target gene | robust z-score, knock-down alone | viability, knock-down alone (fraction of control) | synergy score with BYL719 | synergy score with cetuximab | synergy score with trametinib |
| --- | --- | --- | --- | --- | --- |
| NEK3 (NIMA related kinase 3) | -2.47 | 0.769 | -0.171 | -0.0573 | -0.133 |
| STK32B (serine/threonine kinase 32B) | -1.12 | 0.855 | -0.00295 | -0.00817 | 0.1 |
| SOX9 (SRY-box transcription factor 9) | 0.204 | 0.941 | 0.0106 | 0.00748 | -0.09 |
| ZAP70 (zeta chain of T cell receptor associated protein kinase 70) | -0.891 | 0.87 | 0.00621 | 0.0822 | 0.0298 |
| EIF2AK4 (eukaryotic translation initiation factor 2 alpha kinase 4) | -0.194 | 0.915 | 0.0264 | 0.0944 | -0.115 |
| CIB2 (calcium and integrin binding family member 2) | 0.41 | 0.954 | 0.187 | 0.217 | 0.176 |
| DTYMK (deoxythymidylate kinase) | 0.709 | 0.973 | 0.00789 | -0.024 | -0.0382 |
| KCNH2 (potassium voltage-gated channel subfamily H member 2) | -1.06 | 0.86 | 0.0736 | 0.0824 | -0.0536 |
| MOS (MOS proto-oncogene, serine/threonine kinase) | -0.214 | 0.914 | -0.00587 | 0.0921 | 0.0218 |
| ASPM (assembly factor for spindle microtubules) | 0.315 | 0.948 | -0.00096 | -0.0779 | 0.0304 |
| STK36 (serine/threonine kinase 36) | 0.489 | 0.959 | -0.00407 | 0.0816 | 0.0258 |
| WNK3 (WNK lysine deficient protein kinase 3) | 0.208 | 0.941 | 0.0392 | 0.0239 | -0.0162 |
| ERN2 (endoplasmic reticulum to nucleus signaling 2) | 1.02 | 0.993 | 0.00138 | 0.0862 | 0.108 |
| PXK (PX domain containing serine/threonine kinase like) | 0.697 | 0.972 | 0.118 | 0.265 | 0.204 |
| TP53 (tumor protein p53) | -1.17 | 0.853 | -0.0208 | 0.12 | 0.0925 |
| MAGI2 | 0.306 | 0.947 | -0.00165 | 0.129 | -0.0836 |
| CHEK2 (checkpoint kinase 2) | 0.75 | 0.976 | 0.0263 | 0.186 | -0.00057 |
| NEK4 (NIMA related kinase 4) | 1.13 | 1 | 0.0405 | 0.107 | 0.0384 |
| IP6K1 (inositol hexakisphosphate kinase 1) | 0.799 | 0.979 | 0.112 | 0.127 | 0.0093 |
| NRK (Nik related kinase) | -0.379 | 0.903 | -0.044 | -0.096 | 0.116 |
